In patent EP1152011A1 (KYOWA HAKKO KOGYO CO., LTD., priority 1999, dated 2000):
Some peptides are written in HELM: one residue between dots, names in brackets for other building blocks, links after the first $.

Assay: general procedure: Fmoc solid-phase peptide synthesis; Rink Amide MBHA resin; PyBOP, HOBt monohydrate, NMM
Conditions: whole synthesis, scale 23.5 µmol

Row | Substance | crude mass | isolated mass
1 | PEPTIDE1{M.S.E.W.I.T.W.S.P.A.S.I.S.A.G.[am]}$$$$V2.0 | 42.7 mg | 13.7 mg
2 | PEPTIDE1{L.S.L.W.S.E.W.S.D.A.S.V.T.A.G.[am]}$$$$V2.0 | 38.3 mg | 9.4 mg

Same assay, conditions: whole synthesis, scale 27.5 µmol

Row | Substance | crude mass | isolated mass
3 | PEPTIDE1{R.Y.M.T.V.K.K.R.F.K.S.S.Q.F.T.[am]}$$$$V2.0 | 61.5 mg | 2.5 mg
4 | PEPTIDE1{M.K.K.R.H.R.M.I.K.M.N.P.A.D.G.[am]}$$$$V2.0 |  | 26.7 mg
5 | PEPTIDE1{L.T.E.W.S.Q.W.S.E.A.N.K.S.A.G.[am]}$$$$V2.0 | 16.4 mg | 4.2 mg
6 | PEPTIDE1{G.K.G.H.V.I.R.T.R.M.I.Q.M.E.[am]}$$$$V2.0 | 66.6 mg | 17.6 mg
7 | PEPTIDE1{M.T.E.W.G.E.W.D.E.A.S.A.T.A.G.[am]}$$$$V2.0 | 50.9 mg | 2.6 mg
8 | PEPTIDE1{D.K.G.K.R.M.R.Q.R.M.L.K.A.Q.L.[am]}$$$$V2.0 | 82.6 mg | 10.0 mg
9 | PEPTIDE1{P.A.P.E.T.V.Q.R.K.K.A.R.I.R.K.[am]}$$$$V2.0 | 85.9 mg | 23.7 mg
10 | PEPTIDE1{M.R.P.W.T.A.W.S.E.A.T.K.L.A.G.[am]}$$$$V2.0 | 80.1 mg | 3.9 mg
11 | PEPTIDE1{Y.S.N.W.S.P.W.S.A.A.S.S.S.T.A.D.[am]}$$$$V2.0 | 56.5 mg | 3.1 mg
